Measured data: PubChem BioAssay AID720505 (Drosophila RNAi Screening Center, 2013)
Aim: 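Fly regulators or components of the CRAC channel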 (primary screen). Cell system: Drosophila S2R+ cells. Knock-down reagent: long dsRNA against Drosophila genes. Conditions: thapsigargin (2 µM) in calcium-free buffer to empty internal stores, then 2 mM calcium added back. Read-out: 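Stores emptied by 2 µM thapsigargin without calcium, then 2 mM calcium re-added; fluo-4 fluorescence followed by FLIPR in 384-well plates, per-well averaged endpoint, raw; two screen passes, some wells retested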. Scale: calcium signal and retest calcium signal: higher = more calcium entry after store depletion. Rule for the call: 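About 1500 genes called as lowering calcium entry, by varying amounts, judged against per-plate control wells with STIM1 as positive and Rho1 as negative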. Meaning of the calls: active = called as lowering calcium entry; inactive = not called.
The screen tested about 20,000 reagents; shown is a random part of those that have a named target and a result. In the full data, about 2,100 (10%) were called active. 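Raw plate signals without normalisation; calls rest on control-based scores that were not deposited; replicate 2 separates called from uncalled poorly.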 The numbers tell different reagents against one gene apart. Names joined by + are all predicted targets of the reagent. The record does not give: the amount of reagent, the time to read-out.

With knock-down of CAH16, the record shows calcium signal, replicate 1 = 163; calcium signal, replicate 2 = 153; inactive.
With knock-down of sni, the screen gave calcium signal, replicate 1 = 105; calcium signal, replicate 2 = 74.6; inactive.
After knock-down of CG5447, the screen gave calcium signal, replicate 1 = 232; calcium signal, replicate 2 = 125; inactive.
Depletion of Pgk #1 came out at: calcium signal, replicate 1 = 179; calcium signal, replicate 2 = 147; inactive.
With knock-down of Pgk #2, the screen gave calcium signal, replicate 1 = 90.2; calcium signal, replicate 2 = 126; inactive.
Against CG3119 the deposit lists calcium signal, replicate 1 = 177; calcium signal, replicate 2 = 94.1; inactive.
After knock-down of Rab5, the record shows calcium signal, replicate 1 = 55.5; calcium signal, replicate 2 = 97; active.
After knock-down of bou, the record shows calcium signal, replicate 1 = 245; calcium signal, replicate 2 = 134; inactive.
Hakai showed calcium signal, replicate 1 = 94.2; calcium signal, replicate 2 = 113; inactive.
CCT3 gave calcium signal, replicate 1 = 233; calcium signal, replicate 2 = 272; inactive.
With knock-down of CG2061, the record shows calcium signal, replicate 1 = 115; calcium signal, replicate 2 = 87.7; inactive.
Knock-down of eIF3h resulted in: calcium signal, replicate 1 = 88.9; calcium signal, replicate 2 = 167; inactive.
Against Ir75c the deposit lists calcium signal, replicate 1 = 127; calcium signal, replicate 2 = 196; inactive.
Silencing of Nhe1 came out at: calcium signal, replicate 1 = 63.5; calcium signal, replicate 2 = 115; active.
Against por, the values are calcium signal, replicate 1 = 96; calcium signal, replicate 2 = 115; inactive.
Against CG9130 + CG9133 #1 the deposit lists calcium signal, replicate 1 = 59.9; calcium signal, replicate 2 = 90.2; retest calcium signal, replicate 1 = 98.9; retest calcium signal, replicate 2 = 103; inactive.
With knock-down of CG9130 + CG9133 #2 the results were calcium signal, replicate 1 = 130; calcium signal, replicate 2 = 134; inactive.
Depletion of CG9130 + CG9133 #3 came out at: calcium signal, replicate 1 = 98; calcium signal, replicate 2 = 152; inactive.
For Cyp4d1 the deposit lists calcium signal, replicate 1 = 95.3; calcium signal, replicate 2 = 133; inactive.
Against Elp6, the values are calcium signal, replicate 1 = 117; calcium signal, replicate 2 = 92.6; inactive.
D showed calcium signal, replicate 1 = 79; calcium signal, replicate 2 = 136; inactive.
CG42264 #1 scored calcium signal, replicate 1 = 212; calcium signal, replicate 2 = 98.2; inactive.
Silencing of CG42264 #2 came out at: calcium signal, replicate 1 = 154; calcium signal, replicate 2 = 118; inactive.
Silencing of Rh50 resulted in: calcium signal, replicate 1 = 70.8; calcium signal, replicate 2 = 95.2; active.
sphe showed calcium signal, replicate 1 = 108; calcium signal, replicate 2 = 81.7; inactive.
Against caps #1, the values are calcium signal, replicate 1 = 108; calcium signal, replicate 2 = 92; inactive.
caps #2 gave calcium signal, replicate 1 = 49.6; calcium signal, replicate 2 = 156; active.
After knock-down of CG32551 the results were calcium signal, replicate 1 = 96.8; calcium signal, replicate 2 = 104; inactive.

Already shown: 2 of the entries above.
bou → calcium signal, replicate 1 = 245; calcium signal, replicate 2 = 134; Outcome = inactive
Hakai → calcium signal, replicate 1 = 94.2; calcium signal, replicate 2 = 113; Outcome = inactive
